Experimental data: PubChem BioAssay AID1259425 (University of Nebraska Medical Center, 2018)
Aim: 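Find knockdowns that reproduce the gene expression pattern seen when KSR1 is lost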 (primary screen). Cells: HCT116 human colon cancer cells. Knock-down reagent: siRNA pool against human genes, 50 nM siRNA. Read-out: 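mRNA of six signature genes measured together by branched-DNA assay after 50 nM siRNA pool, blank removed, divided by geometric mean of two housekeeping genes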. Reading the numbers: BNIP3L mRNA: higher = more BNIP3L transcript after knockdown.
The whole screen tested about 14,000 reagents; shown is an unselected part. Further read-outs or replicates are left out here. Reagent sequences are not shown. Not given: the time to read-out.

no.	Gene	BNIP3L mRNA, set 1
1	SAP18	0.113
2	UQCRB	0.099
3	WNT5A	0.108
4	ECM2	0.0891
5	PALS1	0.0739
6	BRS3	0.108
7	LYRM4	0.0725
8	SLPI	0.102
9	L3MBTL1	0.105
10	ARMCX2	0.163
11	GUCA1B	0.128
12	BTF3	0.0534
13	RGMA	0.126
14	ITIH2	0.153
15	IDH2	0.101
16	COL4A1	0.0592
17	TOR3A	0.0425
18	STX6	0.212
19	DAPK2	0.0894
20	ZNF268	0.0645
21	LRCH3	0.0881
22	IL1R1	0.134
23	EXTL1	0.161
24	COLGALT1	0.115
25	ZNF226	0.185
26	HOXB5	0.0953
27	SEPTIN11	0.0833
28	ST6GALNAC1	0.0993
29	HPR	0.165
30	SPRR3	0.138
31	FRAT2	0.0899
32	MELK	0.147
33	UBL7	0.0906
34	MROH9	0.0954
35	DEPDC1	0.169
36	TNFSF11	0.0581
37	NEK2	0.0576
38	SMARCC1	0.0544
39	MTRR	0.0416
40	TM6SF1	0.0875
41	ZNF33A	0.0759
42	CEP43	0.0488
43	ACOX2	0.382
44	PTMS	0.096
45	CEBPA	0.0979
46	IREB2	0.0571
47	CCDC8	0.212
48	CRK	0.0909
49	SLC1A1	0.0997
50	KLF15	0.0897
51	PRR12	0.07
52	BRPF3	0.0857
53	FOXO4	0.172
54	RSPH3	0.194
55	ABCC2	0.0897
56	CBX1	0.115
57	ZNF41	0.232
58	ALDH8A1	0.0811
59	LSM4	0.214
60	NEK6	0.218
61	DMRT3	0.165
62	MARCHF1	0.0791
63	NOL9	0.173
